These are yes or no findings as the source states them, for the method shown. Some binding calls cover weakened binding; strength is not graded here.
T1: τ95 (subunit of τA) (S. cerevisiae) (UniProt P32367)
T1 sequence: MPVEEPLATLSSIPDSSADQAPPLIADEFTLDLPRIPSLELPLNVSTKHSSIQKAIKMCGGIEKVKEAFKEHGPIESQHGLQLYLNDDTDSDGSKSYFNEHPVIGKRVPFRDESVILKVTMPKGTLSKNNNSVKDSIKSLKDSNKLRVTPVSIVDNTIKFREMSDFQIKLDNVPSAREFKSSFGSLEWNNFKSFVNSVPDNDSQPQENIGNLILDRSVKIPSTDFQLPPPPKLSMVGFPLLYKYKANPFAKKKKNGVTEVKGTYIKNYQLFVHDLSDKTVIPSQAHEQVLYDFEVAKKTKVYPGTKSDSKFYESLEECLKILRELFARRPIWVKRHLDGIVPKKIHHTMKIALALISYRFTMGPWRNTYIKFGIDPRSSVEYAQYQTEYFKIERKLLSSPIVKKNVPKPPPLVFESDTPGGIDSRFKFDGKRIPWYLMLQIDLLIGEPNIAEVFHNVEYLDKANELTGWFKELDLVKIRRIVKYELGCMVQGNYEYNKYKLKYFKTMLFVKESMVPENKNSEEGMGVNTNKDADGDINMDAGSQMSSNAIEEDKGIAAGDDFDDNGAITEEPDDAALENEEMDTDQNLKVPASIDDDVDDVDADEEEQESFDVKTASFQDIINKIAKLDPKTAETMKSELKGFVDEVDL

T2: τ131 (subunit of τA) (S. cerevisiae) (UniProt P33339)
T2 sequence: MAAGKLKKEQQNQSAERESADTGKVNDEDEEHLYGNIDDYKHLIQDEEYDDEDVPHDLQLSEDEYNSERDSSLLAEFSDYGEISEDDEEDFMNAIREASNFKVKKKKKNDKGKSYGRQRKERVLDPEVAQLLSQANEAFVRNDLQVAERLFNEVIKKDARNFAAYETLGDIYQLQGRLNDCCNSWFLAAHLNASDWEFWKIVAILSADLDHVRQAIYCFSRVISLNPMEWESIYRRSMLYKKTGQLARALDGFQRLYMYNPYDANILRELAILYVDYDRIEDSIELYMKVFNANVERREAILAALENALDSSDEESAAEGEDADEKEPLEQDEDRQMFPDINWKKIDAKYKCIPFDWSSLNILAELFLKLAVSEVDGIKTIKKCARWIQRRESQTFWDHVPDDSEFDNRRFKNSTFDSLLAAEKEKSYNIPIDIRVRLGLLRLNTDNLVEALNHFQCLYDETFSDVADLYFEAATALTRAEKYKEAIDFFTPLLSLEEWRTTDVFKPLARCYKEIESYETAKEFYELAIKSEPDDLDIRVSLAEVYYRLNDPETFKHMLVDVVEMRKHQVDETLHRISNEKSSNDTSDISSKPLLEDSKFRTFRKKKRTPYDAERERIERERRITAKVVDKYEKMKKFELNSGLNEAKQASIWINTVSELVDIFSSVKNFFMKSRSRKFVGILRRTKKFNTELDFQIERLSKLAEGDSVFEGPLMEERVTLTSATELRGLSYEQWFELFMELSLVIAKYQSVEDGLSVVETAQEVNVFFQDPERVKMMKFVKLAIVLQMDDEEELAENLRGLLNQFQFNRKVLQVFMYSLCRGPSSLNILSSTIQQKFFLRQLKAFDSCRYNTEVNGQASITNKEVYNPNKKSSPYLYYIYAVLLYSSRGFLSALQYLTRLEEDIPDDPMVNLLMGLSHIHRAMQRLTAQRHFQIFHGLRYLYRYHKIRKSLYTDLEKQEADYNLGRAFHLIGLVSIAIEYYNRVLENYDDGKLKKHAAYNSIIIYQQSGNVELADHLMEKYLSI


What was measured:
[1] = molecular target: T1, τ95 (subunit of τA) (S. cerevisiae); experiment: cryo-EM structure; τA at 3.1 Å; sample of τA, His_upstream_Abox DNA, Brf1–TBP and Bdp1 at 75 mM NaCl, 4 mM CHAPSO added before freezing; only τA seen in the density; both purified
[2] = molecular target: T2, τ131 (subunit of τA) (S. cerevisiae); experiment: as above

| binding [1] | binding [2] | Binder |
| --- | --- | --- |
| binds | binds | τ55 (subunit of τA) (protein, UniProt Q12415 1-435) MVVNTIYIARHGYRSNWLPEGPYPDPLTGIDSDVPLAEHGVQQAKELAHYLLSLDNQPEAAFASPFYRCLETVQPIAKLLEIPVYLERGIGEWYRPDRKPVIPVPAGYEILSKFFPGVISQEWDSTLTPNEKGETEQEMYMRFKKFWPLFIERVEKEYPNVECILLVTHAASKIALGMSLLGYDNPRMSLNENGDKIRSGSCSLDKYEILKKSYDTIDETDDQTSFTYIPFSDRKWVLTMNGNTEFLSSGEEMNWNFDCVAEAGSDADIKKRQMTKKTSSPIPEADDQTEVETVYISVDIPSGNYKERTEIAKSAILQYSGLETDAPLFRIGNRLYEGSWERLVGTELAFPNAAHVHKKTAGLLSPTEENETTNAGQSKGSSTANDPNIQIQEEDVGLPDSTNTSRDHTGDKEEVQSEKIYRIKERIVLSNVRPM |
| – | binds | τ95 (subunit of τA) (protein, UniProt P32367 1-649) MPVEEPLATLSSIPDSSADQAPPLIADEFTLDLPRIPSLELPLNVSTKHSSIQKAIKMCGGIEKVKEAFKEHGPIESQHGLQLYLNDDTDSDGSKSYFNEHPVIGKRVPFRDESVILKVTMPKGTLSKNNNSVKDSIKSLKDSNKLRVTPVSIVDNTIKFREMSDFQIKLDNVPSAREFKSSFGSLEWNNFKSFVNSVPDNDSQPQENIGNLILDRSVKIPSTDFQLPPPPKLSMVGFPLLYKYKANPFAKKKKNGVTEVKGTYIKNYQLFVHDLSDKTVIPSQAHEQVLYDFEVAKKTKVYPGTKSDSKFYESLEECLKILRELFARRPIWVKRHLDGIVPKKIHHTMKIALALISYRFTMGPWRNTYIKFGIDPRSSVEYAQYQTEYFKIERKLLSSPIVKKNVPKPPPLVFESDTPGGIDSRFKFDGKRIPWYLMLQIDLLIGEPNIAEVFHNVEYLDKANELTGWFKELDLVKIRRIVKYELGCMVQGNYEYNKYKLKYFKTMLFVKESMVPENKNSEEGMGVNTNKDADGDINMDAGSQMSSNAIEEDKGIAAGDDFDDNGAITEEPDDAALENEEMDTDQNLKVPASIDDDVDDVDADEEEQESFDVKTASFQDIINKIAKLDPKTAETMKSELKGFVDEVDL |

Source: article PMC7528018, “Structure of the TFIIIC subcomplex τA provides insights into RNA polymerase III pre-initiation complex formation” (Nature Communications, 2020)
